Measured values as given in PMC3342256.
Results are given in words; binding and its absence hold for the method and conditions named. Some entries that bind do so weakly or less than the wild type.

Tests used:
[1] = molecular target: PfP2 deletion construct lacking 40 residues from the C-terminus (PfP2-Del 40) (Plasmodium falciparum) (UniProt O00806); test: NMR (1H-15N HSQC); deletion construct without the last 40 residues; data not shown; both purified
[2] = molecular target: PfP2 deletion construct lacking 40 residues from the C-terminus (PfP2-Del 40) (Plasmodium falciparum) (UniProt O00806); test: SDS-PAGE (SDS-resistant oligomers); 100 µg of each recombinant protein, SDS and DTT treatment, Coomassie stain and immunoblot with anti-P2 monoclonal antibody E2G12; both purified

B1: PfP2 deletion construct lacking 40 residues from the C-terminus (PfP2-Del 40) (domain or fragment, UniProt O00806 1-72)
chain: MAMKYVAAYLMCVLGGNENPSTKEVKNVLGAVNADVEDEVLNNFIDSLKGKSCHELITDGLKKLQNIGGGVA
With B1 the binding [1] was “binds” and the binding [2] was “binds”.
